Experimental data from the supplement of paper PMC12067093, “Discovery and optimisation of a covalent ligand for TRIM25 and its application to targeted protein ubiquitination” (Chemical Science, 2025).
The other results are listed elsewhere or left out.

The chains behind the UniProt entries cited, without tags or fusion partners. Where a name states a change or a piece, a line headed by the entry shows the natural chain unless it says otherwise.
UniProt Q9P2I0: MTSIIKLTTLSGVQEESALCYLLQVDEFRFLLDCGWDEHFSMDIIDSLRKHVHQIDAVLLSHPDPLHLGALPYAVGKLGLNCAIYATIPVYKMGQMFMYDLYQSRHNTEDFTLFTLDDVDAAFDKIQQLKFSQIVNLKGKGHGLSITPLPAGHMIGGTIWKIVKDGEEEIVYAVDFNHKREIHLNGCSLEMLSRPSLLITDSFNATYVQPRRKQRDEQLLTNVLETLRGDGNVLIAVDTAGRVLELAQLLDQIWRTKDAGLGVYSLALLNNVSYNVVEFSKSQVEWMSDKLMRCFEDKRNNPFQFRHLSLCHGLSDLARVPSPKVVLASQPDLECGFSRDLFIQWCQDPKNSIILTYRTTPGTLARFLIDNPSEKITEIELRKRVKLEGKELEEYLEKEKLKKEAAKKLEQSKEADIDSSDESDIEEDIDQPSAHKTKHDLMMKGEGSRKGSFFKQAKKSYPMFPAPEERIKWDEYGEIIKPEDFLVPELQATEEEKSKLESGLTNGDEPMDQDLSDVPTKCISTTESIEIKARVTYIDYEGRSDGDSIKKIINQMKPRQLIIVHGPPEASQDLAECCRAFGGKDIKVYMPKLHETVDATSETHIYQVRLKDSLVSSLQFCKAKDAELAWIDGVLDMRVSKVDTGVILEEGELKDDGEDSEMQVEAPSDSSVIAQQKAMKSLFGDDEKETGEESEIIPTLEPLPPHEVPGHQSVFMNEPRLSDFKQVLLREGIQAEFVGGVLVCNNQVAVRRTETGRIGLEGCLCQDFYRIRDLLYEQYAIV
UniProt P57737: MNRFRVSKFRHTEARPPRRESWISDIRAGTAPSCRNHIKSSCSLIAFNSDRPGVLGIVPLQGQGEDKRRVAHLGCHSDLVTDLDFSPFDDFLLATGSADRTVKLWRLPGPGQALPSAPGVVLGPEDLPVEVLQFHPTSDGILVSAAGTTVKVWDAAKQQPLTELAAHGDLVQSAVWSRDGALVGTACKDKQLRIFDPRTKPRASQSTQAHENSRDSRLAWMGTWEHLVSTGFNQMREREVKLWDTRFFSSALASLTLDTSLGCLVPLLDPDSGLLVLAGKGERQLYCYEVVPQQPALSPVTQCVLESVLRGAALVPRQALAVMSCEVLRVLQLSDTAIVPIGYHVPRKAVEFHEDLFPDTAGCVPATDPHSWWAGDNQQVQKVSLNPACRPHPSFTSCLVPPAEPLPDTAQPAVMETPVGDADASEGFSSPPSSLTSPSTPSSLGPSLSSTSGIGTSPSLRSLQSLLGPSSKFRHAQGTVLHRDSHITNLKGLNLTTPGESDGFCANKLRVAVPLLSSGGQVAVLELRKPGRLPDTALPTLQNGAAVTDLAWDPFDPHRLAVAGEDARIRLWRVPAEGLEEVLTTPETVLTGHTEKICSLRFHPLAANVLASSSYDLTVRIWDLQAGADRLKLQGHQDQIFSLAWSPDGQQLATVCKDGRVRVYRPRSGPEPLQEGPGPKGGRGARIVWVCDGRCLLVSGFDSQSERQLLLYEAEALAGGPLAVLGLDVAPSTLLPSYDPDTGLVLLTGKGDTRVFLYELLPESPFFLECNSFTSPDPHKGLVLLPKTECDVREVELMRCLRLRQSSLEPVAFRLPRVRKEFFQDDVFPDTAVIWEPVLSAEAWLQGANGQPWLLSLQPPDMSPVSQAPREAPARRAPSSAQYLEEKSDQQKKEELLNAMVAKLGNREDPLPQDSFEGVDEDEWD
UniProt Q9ULV4, whole entry, looked up: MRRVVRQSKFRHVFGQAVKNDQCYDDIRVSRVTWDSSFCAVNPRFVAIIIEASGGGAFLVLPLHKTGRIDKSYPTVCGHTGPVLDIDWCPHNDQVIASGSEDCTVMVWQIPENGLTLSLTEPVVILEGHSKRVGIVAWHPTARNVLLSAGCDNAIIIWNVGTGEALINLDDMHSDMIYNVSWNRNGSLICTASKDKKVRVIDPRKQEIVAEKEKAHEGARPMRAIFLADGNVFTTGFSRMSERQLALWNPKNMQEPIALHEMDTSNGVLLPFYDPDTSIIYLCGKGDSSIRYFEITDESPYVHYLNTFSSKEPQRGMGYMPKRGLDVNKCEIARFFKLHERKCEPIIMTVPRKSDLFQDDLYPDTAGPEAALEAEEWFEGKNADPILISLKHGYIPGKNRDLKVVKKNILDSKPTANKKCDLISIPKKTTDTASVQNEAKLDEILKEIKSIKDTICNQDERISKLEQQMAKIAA
UniProt P41240: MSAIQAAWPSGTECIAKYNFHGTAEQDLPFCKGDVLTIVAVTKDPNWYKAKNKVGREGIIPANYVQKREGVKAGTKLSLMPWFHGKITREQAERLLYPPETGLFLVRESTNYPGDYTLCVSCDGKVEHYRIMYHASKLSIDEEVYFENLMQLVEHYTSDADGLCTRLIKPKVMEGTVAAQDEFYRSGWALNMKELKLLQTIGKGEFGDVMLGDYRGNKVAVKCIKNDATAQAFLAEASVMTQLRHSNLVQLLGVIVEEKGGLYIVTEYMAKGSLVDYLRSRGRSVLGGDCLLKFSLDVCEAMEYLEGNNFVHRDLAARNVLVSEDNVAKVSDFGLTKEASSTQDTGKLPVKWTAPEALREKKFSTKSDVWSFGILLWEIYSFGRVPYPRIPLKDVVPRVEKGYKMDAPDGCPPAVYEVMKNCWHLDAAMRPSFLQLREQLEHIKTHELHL
UniProt P33240: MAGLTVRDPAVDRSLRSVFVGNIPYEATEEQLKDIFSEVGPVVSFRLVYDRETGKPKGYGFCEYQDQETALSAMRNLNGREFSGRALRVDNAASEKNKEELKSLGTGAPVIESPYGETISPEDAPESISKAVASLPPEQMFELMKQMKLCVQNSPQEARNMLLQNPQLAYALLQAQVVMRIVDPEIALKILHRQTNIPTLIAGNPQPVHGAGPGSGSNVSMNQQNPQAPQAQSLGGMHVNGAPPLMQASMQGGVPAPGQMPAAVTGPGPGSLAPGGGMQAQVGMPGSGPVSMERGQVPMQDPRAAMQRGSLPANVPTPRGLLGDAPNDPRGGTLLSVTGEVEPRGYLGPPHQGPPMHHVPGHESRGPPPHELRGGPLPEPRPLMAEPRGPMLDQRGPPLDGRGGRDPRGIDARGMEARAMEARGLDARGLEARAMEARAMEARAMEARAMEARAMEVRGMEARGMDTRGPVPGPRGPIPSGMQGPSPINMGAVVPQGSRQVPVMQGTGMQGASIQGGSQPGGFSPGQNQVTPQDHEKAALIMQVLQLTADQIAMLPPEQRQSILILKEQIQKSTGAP
UniProt Q9UKF6: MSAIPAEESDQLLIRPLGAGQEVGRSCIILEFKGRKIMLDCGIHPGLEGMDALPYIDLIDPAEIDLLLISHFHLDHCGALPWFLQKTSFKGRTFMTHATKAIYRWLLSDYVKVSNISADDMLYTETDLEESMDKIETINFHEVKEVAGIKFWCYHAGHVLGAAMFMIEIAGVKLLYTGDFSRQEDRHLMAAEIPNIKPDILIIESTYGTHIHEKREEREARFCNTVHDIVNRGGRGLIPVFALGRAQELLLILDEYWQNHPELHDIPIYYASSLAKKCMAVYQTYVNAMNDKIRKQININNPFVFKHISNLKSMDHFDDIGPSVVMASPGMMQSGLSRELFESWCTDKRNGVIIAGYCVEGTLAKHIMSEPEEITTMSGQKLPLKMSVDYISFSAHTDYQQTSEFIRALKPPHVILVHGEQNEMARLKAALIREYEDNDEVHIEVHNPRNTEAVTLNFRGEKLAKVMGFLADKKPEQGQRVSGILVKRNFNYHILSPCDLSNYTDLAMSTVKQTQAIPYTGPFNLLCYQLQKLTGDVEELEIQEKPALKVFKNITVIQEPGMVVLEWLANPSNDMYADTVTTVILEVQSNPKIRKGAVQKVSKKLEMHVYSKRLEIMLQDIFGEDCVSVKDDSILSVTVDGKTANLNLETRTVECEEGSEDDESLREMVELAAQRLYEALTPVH
UniProt Q8N684: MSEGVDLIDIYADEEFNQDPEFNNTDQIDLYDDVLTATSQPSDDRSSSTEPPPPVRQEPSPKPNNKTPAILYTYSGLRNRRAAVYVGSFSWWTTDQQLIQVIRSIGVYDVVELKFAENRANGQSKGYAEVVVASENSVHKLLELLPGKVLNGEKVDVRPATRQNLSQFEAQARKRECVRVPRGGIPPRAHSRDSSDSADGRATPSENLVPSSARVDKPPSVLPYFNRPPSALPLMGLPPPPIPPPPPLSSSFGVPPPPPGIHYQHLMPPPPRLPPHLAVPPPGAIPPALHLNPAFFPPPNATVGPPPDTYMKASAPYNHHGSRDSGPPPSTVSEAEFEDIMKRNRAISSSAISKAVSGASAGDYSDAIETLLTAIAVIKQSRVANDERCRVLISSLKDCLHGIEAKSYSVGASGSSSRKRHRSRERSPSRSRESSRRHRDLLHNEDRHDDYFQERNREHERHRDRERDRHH
UniProt Q6QEF8, whole entry, looked up: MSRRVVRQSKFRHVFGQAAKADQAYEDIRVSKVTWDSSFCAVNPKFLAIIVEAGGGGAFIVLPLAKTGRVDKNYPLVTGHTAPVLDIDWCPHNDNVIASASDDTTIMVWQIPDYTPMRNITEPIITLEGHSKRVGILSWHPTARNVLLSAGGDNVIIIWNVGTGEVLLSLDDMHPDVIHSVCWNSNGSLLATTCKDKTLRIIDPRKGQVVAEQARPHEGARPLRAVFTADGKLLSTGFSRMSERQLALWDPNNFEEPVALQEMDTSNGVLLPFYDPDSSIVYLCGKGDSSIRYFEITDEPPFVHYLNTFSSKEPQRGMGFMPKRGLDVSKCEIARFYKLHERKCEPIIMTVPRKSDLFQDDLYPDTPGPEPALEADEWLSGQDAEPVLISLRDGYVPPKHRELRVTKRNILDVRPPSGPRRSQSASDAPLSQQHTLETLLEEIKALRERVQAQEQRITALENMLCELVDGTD
UniProt Q9BR76, whole entry, looked up: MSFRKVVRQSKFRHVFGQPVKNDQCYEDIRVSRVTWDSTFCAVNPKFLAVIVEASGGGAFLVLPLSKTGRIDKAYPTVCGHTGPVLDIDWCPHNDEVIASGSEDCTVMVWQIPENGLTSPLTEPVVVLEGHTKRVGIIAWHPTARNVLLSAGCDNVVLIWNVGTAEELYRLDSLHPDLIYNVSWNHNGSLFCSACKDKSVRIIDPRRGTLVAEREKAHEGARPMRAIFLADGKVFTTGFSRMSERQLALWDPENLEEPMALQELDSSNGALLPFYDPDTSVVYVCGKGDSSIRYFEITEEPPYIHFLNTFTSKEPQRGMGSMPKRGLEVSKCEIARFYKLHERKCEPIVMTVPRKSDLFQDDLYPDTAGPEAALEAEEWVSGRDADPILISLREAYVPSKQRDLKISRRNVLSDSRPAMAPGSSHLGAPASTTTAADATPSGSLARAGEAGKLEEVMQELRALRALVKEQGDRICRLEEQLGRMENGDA

Compound: Cc1cc(ccc1-c1ccccc1)C(=O)N1CCCN(CC1)C(=O)CCl [compound 10]
Test: probe-labelled cysteine peptide fold change vs DMSO (competition) (log2 fold change); higher = less target engagement (more negative = stronger competition)
Details: THP-1, incubation time: 4 h
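Further: competitive profiling in live THP-1 cells: cysteine peptides tagged with an iodoacetamide desthiobiotin (IA-DTB) probe, intensity after compound treatment relative to DMSO-treated cells.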

Target | probe-labelled cysteine peptide fold change (10 µM) | probe-labelled cysteine peptide fold change (50 µM)
CTBP2_P56545_44_DCTVEMPILK (UniProt P56545) | -0.105 | 0.0492
CPSF2_Q9P2I0_578_QLIIVHGPPEASQDLAECCR (UniProt Q9P2I0) | 0.277 | 0.268
CORO7_P57737_389_VSLNPACR (UniProt P57737) | -0.217 | -0.0214
CORO1C_Q9ULV4_39_VTWDSSFCAVNPR (UniProt Q9ULV4) | -0.158 | 0.202
CSK_P41240_122_ESTNYPGDYTLCVSCDGK (UniProt P41240) | 0.0217 | 0.145
CSTF2_P33240_62_GYGFCEYQDQETALSAMR (UniProt P33240) | -0.421 | -0.43
CPSF3_Q9UKF6_655_TVECEEGSEDDESLR (UniProt Q9UKF6) | 0.0669 | 0.446
CPSF7_Q8N684_399_DCLHGIEAK (UniProt Q8N684) | 0.11 | -0.0358
CORO6_Q6QEF8_344_CEPIIMTVPR (UniProt Q6QEF8) | 0.129 | 0.119
CORO1C_Q9ULV4_456_DTICNQDER (UniProt Q9ULV4) | 0.113 | 0.144
CORO1B_Q9BR76_192+195_LDSLHPDLIYNVSWNHNGSLFCSACK (UniProt Q9BR76) | 0.106 | -0.3
CSK_P41240_299_FSLDVCEAMEYLEGNNFVHR (UniProt P41240) | 0.105 | 0.216
CPSF3_Q9UKF6_223_FCNTVHDIVNR (UniProt Q9UKF6) | -0.0564 | -0.0286
CRYL1_Q9Y2S2_141_QCIVAHPVNPPYYIPLVELVPHPETAPTTVDR (UniProt Q9Y2S2) | 0.0414 | 0.407

Single records (already shown):
CORO6_Q6QEF8_344_CEPIIMTVPR (UniProt Q6QEF8) in the list: probe-labelled cysteine peptide fold change (10 µM) = 0.129; probe-labelled cysteine peptide fold change (50 µM) = 0.119
CORO1C_Q9ULV4_456_DTICNQDER (UniProt Q9ULV4) in the list: probe-labelled cysteine peptide fold change (10 µM) = 0.113; probe-labelled cysteine peptide fold change (50 µM) = 0.144
